Reference: the supplement of paper PMC12889115
Some of the results follow. These are raw signals, not scaled to a control.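 In the initial screen, polymyxin B was used at a concentration that permeabilizes Salmonella's outer membrane but not its inner membrane. Maximum growth was set by DMSO wells with or without polymyxin B. Since plates varied, data were ranked per plate, and compounds giving the lowest OD600 advanced as hits.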

Test system: Salmonella enterica serovar Typhimurium SL1344
Assay: bacterial growth OD600 after 18 h with compound and polymyxin B; higher = more bacterial growth (less inhibition)
Settings: 50 µM, Mueller-Hinton broth

Row | SMILES | bacterial growth OD600 (polymyxin B 1 µg/mL) | bacterial growth OD600 (polymyxin B 0.75 µg/mL)
1 | CCOC(=O)C1(Cc2ccc(Cl)cc2)CCN(CC(O)CO)CC1 (stereo not given) | 0.826 | –
2 | CC(C)Cn1cc(C(=O)NCCc2cccs2)c(=O)c(C(=O)N2CCCCCC2)c1 | – | 0.784
3 | CCOC(=O)N1CCC(NC(=O)C2CC23CCN(C(=O)C2(c4ccc(Cl)cc4)CC2)CC3)CC1 (stereo not given) | – | 0.86
4 | CCN(C)C(=O)[C@H]1C[C@@](CC(C)C)(C(=O)OC)N(C)[C@H]1c1cccnc1 | – | 0.834
5 | O=C(NCCOc1ccccc1)C1CCC(=O)N(C2CC2)C1 (stereo not given) | 0.932 | –
6 | COc1ccc(CCN2C(=O)O[C@@H]3CN(c4ncccn4)C[C@@H]32)cc1 | – | 0.866
7 | CCN(CC1CCCN(CCc2cccc(F)c2)C1)C(=O)CN1CCCCC1=O (stereo not given) | – | 0.801
8 | Cc1cc(C)n(CC(=O)N2CCCC(CCC(=O)N3CCN(c4ccccn4)CC3)C2)n1 (stereo not given) | 0.883 | –
9 | COCc1noc(-c2ccc(OCC3(C)CCCNC3)nc2)n1 (stereo not given) | 0.939 | –
10 | COc1cccc(-c2cnc(-c3ccncc3)nc2C2CCN(Cc3ccc(OC)cc3O)CC2)c1 | – | 0.894
11 | COc1cc(C(=O)N2CCCC(Nc3ccc(C)c(C)c3)C2)cc(OC)c1OC (stereo not given) | 0.935 | –
12 | O=C(NCCC1COc2ccccc2O1)c1ccc(N[C@H]2CC[C@H](O)CC2)nc1 (stereo not given in full) | – | 0.753
13 | Cc1ccc2c(c1)CN(CC(=O)NCc1cn3c(n1)SCC3)CC(c1ccsc1)O2 (stereo not given) | – | 0.009
14 | Cc1nc(-c2ccncc2)ncc1C(C)NC(=O)c1c(F)cccc1F (stereo not given) | 0.911 | –
15 | CN(C(=O)Cn1cccn1)C(Cc1ccccc1)C1CCN(C(=O)c2cccc(C(F)(F)F)c2)CC1 (stereo not given) | – | 0.844
16 | COc1cccc(OCc2nc(C(=O)NC3(c4ccccc4)CC3)co2)c1 | 0.89 | –
17 | CSc1ccc(CNC(=O)C2CCC(=O)N(Cc3ccccn3)C2)cc1 (stereo not given) | 1.13 | –
18 | Cc1noc(C)c1CCCNC(=O)c1ccc(N2CCN(C)CC2)nc1 | 1.14 | –
19 | CC1(C)CC(Nc2ccc(C(=O)NCCCc3ccccn3)cn2)CCO1 (stereo not given) | 0.956 | –
20 | CSc1cccc(CN2CCN(Cc3ccccc3F)C(CCO)C2)c1 (stereo not given) | 0.916 | –

Entries of single compounds, looked up by structure.
`CSc1cccc(CN2CCN(Cc3ccccc3F)C(CCO)C2)c1` (stereo not given) reads bacterial growth OD600 (polymyxin B 1 µg/mL): 0.916
`COc1ccc(CCN2C(=O)O[C@@H]3CN(c4ncccn4)C[C@@H]32)cc1` reads bacterial growth OD600 (polymyxin B 0.75 µg/mL): 0.866
